# Measured values taken from the supplement of paper PMC10735217.
# Where a name gives a salt, the structure may show the parent alone. The list shows a part of the results. Repeats in this data set agree poorly, so a single value says little.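 In a drug-repurposing library screen, luminescence reads luciferase driven by eight TEAD-binding elements, stably integrated into human kidney-derived cells. Compounds scoring over five robust Z scores above the plate mean are called hits.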
# Tested on: HEK293A TEAD-LUC reporter
# Test: TEAD-luciferase reporter activity (YAP activation), robust Z score vs plate; higher = stronger YAP/TEAD activation
# Conditions: 24 h
Compound,TEAD-luciferase reporter activity (compound concentration: 200 nM),TEAD-luciferase reporter activity (compound concentration: 2 uM),TEAD-luciferase reporter activity (compound concentration: 10 uM)
CC1(C)[C@@H](OC(=O)CCC(=O)O)CC[C@]2(C)C3=CC[C@@H]4[C@@H]5C[C@@](C)(C(=O)O)CC[C@]5(C)CC[C@@]4(C)[C@]3(C)CC[C@@H]12,inactive: -0.52,inactive: 1.66,inactive: -0.204
O=C(O)C1CSC(c2ccccc2O)N1C(=O)CCS (configuration not stated),inactive: -0.811,inactive: -0.715,inactive: -0.435
CSc1ccccc1N(Cc1ccc(C(F)(F)F)cc1)C(=O)CN(CCN(C)C)C(=O)OCC(C)C [flosatidil],inactive: -0.704,inactive: 3.58,inactive: 2.79
CC(N/C(=N/C#N)Nc1ccncc1)C(C)(C)C (configuration not stated) [pinacidil],,inactive: -1.16,
CC(N/C(=N/C#N)Nc1ccncc1)C(C)(C)C (configuration not stated) [Pinacidil monohydrate],inactive: 1.1,,active: 6.56
O=C(O)CCc1ccc(S(=O)(=O)CCc2c(CCNS(=O)(=O)Cc3ccccc3C(F)(F)F)n(C(c3ccccc3)c3ccccc3)c3ccc(Cl)cc23)cc1,inactive: -1.42,inactive: -0.468,inactive: 0.337
c1ccc(NCc2nc3ccccc3[nH]2)cc1,inactive: 0.00372,inactive: 3.85,inactive: 0.206
CC(C)NNC(=O)c1ccncc1,inactive: 2.61,inactive: -1.09,inactive: -1.71
CC[n+]1c(/C=C/c2ccc(N3CCCC3)cc2)cccc1/C=C/c1ccc(N2CCCC2)cc1,inactive: -1.29,inactive: 1.95,inactive: 3.73
O=C(O)c1cn(C2CC2)c2cc(N3CCOCC3)c(F)cc2c1=O,inactive: 0.759,inactive: -0.469,inactive: -0.218
C/C(=C/CCC1(C)C2CC3C(C2)C31C)CO (stereo not drawn) [alpha-Santalol],inactive: 0.492,inactive: -0.843,inactive: -0.343
COc1cc(OC)c2c(=O)[nH]c(-c3cc(C)c(OCCO)c(C)c3)nc2c1 [Apabetalone],inactive: -0.897,inactive: 1.72,inactive: -0.49
CC1OC2(CCCCC2Oc2cccc(Cl)c2)NC1=O (configuration not stated),inactive: -1,inactive: -1.9,inactive: -0.613
CCc1nc(N)nc(N)c1-c1ccc(Cl)c(Cl)c1,inactive: -2.12,inactive: -1.2,inactive: -1.37
O=c1cc(NCCCN[C@@H]2CCOc3c(Br)cc(Br)cc32)[nH]c2ccsc12,inactive: -0.998,inactive: -0.577,inactive: -0.826
CC(C)(C)C(=O)NNC(=O)/C=C\n1cnc(-c2cc(C(F)(F)F)cc(C(F)(F)F)c2)n1,inactive: 1.03,inactive: -1.08,inactive: -0.944
CS(=O)(=O)c1ccc(-c2cnc(N)c(-c3ccc(C(F)(F)F)nc3)c2)cc1,inactive: -0.143,inactive: -0.363,inactive: -0.398
O=C(c1ccc(F)c(F)c1Nc1ccc(I)cc1F)N1CC(O)([C@@H]2CCCCN2)C1 [Cobimetinib],inactive: -1.75,inactive: -1.73,inactive: 3.32
O=C(NO)c1cc(Br)ccc1O,inactive: -2.1,inactive: -0.922,inactive: 0.116
CC(=O)Oc1cc(C(F)(F)F)ccc1C(=O)O [triflusal],inactive: 0.0901,inactive: -0.641,inactive: -0.414
Cc1ccc(C(=O)c2cc(O)c(O)c([N+](=O)[O-])c2)cc1 [tolcapone],active: 5.98,inactive: 0.233,inactive: 0.519
CCCCCCCCCCCCCCCC(=O)NC1CC(O)C(O)NC(=O)C2C(O)C(C)CN2C(=O)C(C(O)CC(N)=O)NC(=O)C(C(O)C(O)c2ccc(O)c(OS(=O)(=O)[O-])c2)NC(=O)C2CC(O)CN2C(=O)C(C(C)O)NC1=O (configuration not stated),inactive: -1.19,inactive: -0.286,inactive: 0.133
O=c1c2c([nH]c3ccccc13)[C@H](c1ccc3c(c1)CCO3)N(c1ncc(-c3ccccn3)cn1)C2,inactive: -0.3,inactive: 0.261,inactive: -0.709
CCCNCCc1ccc(NS(=O)(=O)c2ccc(OC(F)(F)F)cc2)cc1,inactive: -1.57,inactive: -0.229,inactive: 0.513
CCC(C)OC(=O)N1CCCCC1CCO (configuration not stated),inactive: 3.82,inactive: 0.747,inactive: 1.91
CC1(C)OC2(C)C(O)CC1CC2O (configuration not stated) [epomediol],inactive: 0.00556,inactive: -0.674,inactive: 2.85
CS(=O)(=O)c1ccc(C2=C(c3ccc(F)cc3)CCC2)cc1,inactive: 0.0264,inactive: 0.594,inactive: 0.395

# Not a retest: entries from further up.
Compound,TEAD-luciferase reporter activity (compound concentration: 200 nM),TEAD-luciferase reporter activity (compound concentration: 2 uM),TEAD-luciferase reporter activity (compound concentration: 10 uM)
CC(C)(C)C(=O)NNC(=O)/C=C\n1cnc(-c2cc(C(F)(F)F)cc(C(F)(F)F)c2)n1,inactive: 1.03,inactive: -1.08,inactive: -0.944
CS(=O)(=O)c1ccc(-c2cnc(N)c(-c3ccc(C(F)(F)F)nc3)c2)cc1,inactive: -0.143,inactive: -0.363,inactive: -0.398

# Continuation.

Compound,TEAD-luciferase reporter activity (compound concentration: 200 nM),TEAD-luciferase reporter activity (compound concentration: 2 uM),TEAD-luciferase reporter activity (compound concentration: 10 uM)
NCCCC[C@H](NC(=O)[C@@H](NC(=O)[C@H](Cc1c[nH]c2ccccc12)NC(=O)[C@H](CCCCN)NC(=O)[C@H](CCCCN)NC(=O)[C@H](Cc1c[nH]c2ccccc12)NC(=O)[C@H](Cc1c[nH]c2ccccc12)NC(=O)[C@H](CCCCN)NC(=O)[C@@H](N)CCCCN)C(c1ccccc1)c1ccccc1)C(N)=O,inactive: -1.3,inactive: -0.015,inactive: -0.419
COc1ccccc1-c1csc(Cc2nc[nH]c2C)n1,inactive: -0.564,inactive: -2.35,inactive: 4.42
N#Cc1ccc(CN2CCCCC23Cc2ccccc2CNC3=O)cc1 (configuration not stated),inactive: 4.89,,active: 7.77
CC1(C)C(=O)N=C2C1=C(O)C(=O)c1ccccc12,inactive: -0.137,inactive: -0.846,inactive: -0.797
O=C(O)CCC(=O)N1Cc2ccccc2CC2(CCCCN2CC2CCCC2)C1 (configuration not stated),inactive: -0.412,,inactive: 2.17
COC(=O)/C=C/C(=O)OC [Dimethyl fumarate],inactive: 0.26,inactive: -1.19,inactive: 0.73
O=C(CNCC(=O)Nc1ccccc1)Nc1ccccc1,inactive: -2.4,inactive: -0.394,inactive: 2.75
Oc1nc2cccc(N3CCN(Cc4cccc(-c5ccccc5)c4)CC3)c2o1 [Bifeprunox mesilate],inactive: -0.495,inactive: 0.923,inactive: -1.5
Cc1nc2n(n1)C(N1CCN(C)CC1)=Nc1ccccc1C2,inactive: 0.18,inactive: 0.385,inactive: 0.0647
CCc1cn(C2CC(O)C(CO)O2)c(=O)[nH]c1=O (configuration not stated),inactive: -0.602,inactive: 2.76,inactive: -1.66
C[C@H]1CN(c2c(F)cc3c(=O)c(C(=O)O)cn(C4CC4)c3c2OC(F)F)CCN1,inactive: -1.34,inactive: 1.94,inactive: 0.509
O=C(O)CCc1ccccc1Oc1ccc(Cl)cc1Cl,inactive: -0.188,inactive: -1.15,inactive: 0.00317
O=C(Cc1ccc(-c2ccccc2)cc1)NCCN1CCCCC1,inactive: -4,inactive: 0.953,inactive: 2.72
CC1CCCC2N(C)C=C(C(N)=O)C(=O)N12 (configuration not stated),inactive: 1.07,inactive: -0.151,inactive: 0.694
CC(=O)NC[C@H]1CN(c2ccc(-n3cc(C#N)cn3)c(F)c2)C(=O)O1,inactive: -1.52,inactive: 0.0415,inactive: 3.5
OC1CN(CCCOCCc2ccc3sccc3c2)C1,inactive: 0.129,inactive: -0.256,inactive: -0.201
COc1ccc(OC(C)C(=O)O)cc1 (configuration not stated),inactive: -0.846,inactive: -1.21,inactive: -1.4
CCC(C)C(N)C(=O)NCCN1CCOCC1 (configuration not stated),inactive: -0.869,inactive: -1.8,inactive: 0.53
CCCc1c(OCCCCc2nnn[nH]2)ccc(C(C)=O)c1O [Tomelukast],inactive: 0.466,inactive: -0.715,inactive: -1.86
COc1cc(C(C)C)c(Oc2cnc(N)nc2N)cc1I,inactive: -0.43,inactive: -0.12,inactive: -0.15
CCCN(CCC)C(=O)C(Cc1ccc(OCCCN2CCN(C)CC2)cc1)NC(=O)c1ccc(Cl)cc1 (configuration not stated),inactive: -2.7,inactive: 2.6,inactive: 2.66
CCCCCCCCCCCCCCCC(=O)OC[C@@H](O)[C@H]1OC[C@H](O)[C@H]1O,inactive: 0.338,inactive: 1.59,inactive: -0.209
O=C(NC(Cc1ccc(OCc2ccc3ccc(F)cc3n2)cc1)C(=O)O)c1ccc2ccccc2n1 (configuration not stated),inactive: -1.83,inactive: -0.134,inactive: 4.63
C[C@@H]1O[C@@H](O[C@@H]2[C@@H](O)[C@H](OCCc3ccc(O)c(O)c3)O[C@H](CO)[C@H]2OC(=O)/C=C/c2ccc(O)c(O)c2)[C@H](O)[C@H](O)[C@H]1O [Verbascoside],inactive: -0.683,inactive: -1.09,inactive: -0.883
CCOC(Cc1ccc(OCCN2c3ccccc3Oc3ccccc32)cc1)C(=O)O (configuration not stated),inactive: -0.189,inactive: -0.0194,inactive: 4.97
Cc1cc(=O)c(N)nn1-c1ccc(C(F)(F)F)cc1,inactive: -0.533,inactive: 2.72,inactive: 0.115
C/C1=C2/[N]([Co+][CH2][C@H]3O[C@H](n4cnc5c(N)ncnc54)[C@@H](O)[C@H]3O)[C@H]([C@H](CC(N)=O)[C@@]2(C)CCC(=O)NC[C@@H](C)OP(=O)([O-])O[C@H]2[C@@H](O)[C@@H](n3cnc4cc(C)c(C)cc43)O[C@@H]2CO)[C@]2(C)N=C(/C(C)=C3N=C(/C=C4N=C1[C@@H](CCC(N)=O)C\4(C)C)[C@@H](CCC(N)=O)[C@]\3(C)CC(N)=O)[C@@H](CCC(N)=O)[C@]2(C)CC(N)=O [Coenzyme B12],inactive: -0.742,inactive: -2.37,inactive: -1.4
